Data as given in PubChem BioAssay AID1259425 (University of Nebraska Medical Center, 2018)
Here is an unselected part of about 14,000 deposited reagents. Further read-outs or replicates are left out here. The record does not give: the time to read-out.

- Purpose: 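Find knockdowns that reproduce the gene expression pattern seen when KSR1 is lost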 (primary screen)
- Cell system: HCT116 human colon cancer cells
- Reagent: siRNA pool against human genes, 50 nM siRNA
- Measurement: 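mRNA of six signature genes measured together by branched-DNA assay after 50 nM siRNA pool, blank removed, divided by geometric mean of two housekeeping genes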
- Direction: BNIP3L mRNA: higher = more BNIP3L transcript after knockdown; NDRG1 mRNA: higher = more NDRG1 transcript after knockdown

Gene | BNIP3L mRNA, set 1 | NDRG1 mRNA, set 1
BTN3A2 | 0.118 | 0.171
CYCS | 0.0927 | 0.192
WDFY1 | 0.0817 | 0.166
BECN1 | 0.0982 | 0.156
ITPR3 | 0.13 | 0.122
CSF1R | 0.179 | 0.168
ASCL3 | 0.202 | 0.439
VPS16 | 0.0798 | 0.106
MANF | 0.0652 | 0.234
DISP1 | 0.285 | 0.936
SEH1L | 0.113 | 0.21
RNF138 | 0.0692 | 0.147
IL19 | 0.0994 | 0.609
ESM1 | 0.0614 | 0.0864
GUCY2F | 0.116 | 0.118
MKNK1 | 0.144 | 0.0672
CPT1B | 0.112 | 0.109
MT-ND6 | 0.11 | 0.0468
RHPN1-AS1 | 0.104 | 0.157
BBC3 | 0.226 | 0.133
GOLGA3 | 0.0736 | 0.086
PDCD10 | 0.0802 | 0.119
MYO1G | 0.1 | 0.16

Continued; the last 4 above are carried over.
Gene | BNIP3L mRNA, set 1 | NDRG1 mRNA, set 1
BBC3 | 0.226 | 0.133
GOLGA3 | 0.0736 | 0.086
PDCD10 | 0.0802 | 0.119
MYO1G | 0.1 | 0.16
GNPNAT1 | 0.093 | 0.156
COPB1 | 0.317 | 1.02
ADAMTS17 | 0.0424 | 0.587
EMP1 | 0.0882 | 0.113
DAO | 0.179 | 0.125
SLC34A1 | 0.111 | 0.359
PPME1 | 0.07 | 0.189
RAP1GDS1 | 0.0736 | 0.0719
KLKB1 | 0.114 | 0.116
CNOT6 | 0.105 | 0.106
S100P | 0.25 | 0.736
MAN2C1 | 0.169 | 0.245
NAXD | 0.143 | 0.263
ITPKC | 0.133 | 0.342
NOL4 | 0.0592 | 0.175
RMI1 | 0.158 | 0.358
ZFAND3 | 0.113 | 0.362
RIN1 | 0.106 | 0.08
SYT1 | 0.0826 | 0.332
POLR2H | 0.0882 | 0.617
TRERF1 | 0.0903 | 0.355
EFCAB7 | 0.15 | 0.334
MARCHF5 | 0.112 | 0.123
SH3GLB2 | 0.147 | 0.534
OBP2B | 0.0527 | 0.151
CA12 | 0.0919 | 0.132
GLB1 | 0.0874 | 0.207
